# Library screen at single concentrations

The chains behind the UniProt entries cited, without tags or fusion partners. Residues count along the entry.
UniProt A4I591, 1-473: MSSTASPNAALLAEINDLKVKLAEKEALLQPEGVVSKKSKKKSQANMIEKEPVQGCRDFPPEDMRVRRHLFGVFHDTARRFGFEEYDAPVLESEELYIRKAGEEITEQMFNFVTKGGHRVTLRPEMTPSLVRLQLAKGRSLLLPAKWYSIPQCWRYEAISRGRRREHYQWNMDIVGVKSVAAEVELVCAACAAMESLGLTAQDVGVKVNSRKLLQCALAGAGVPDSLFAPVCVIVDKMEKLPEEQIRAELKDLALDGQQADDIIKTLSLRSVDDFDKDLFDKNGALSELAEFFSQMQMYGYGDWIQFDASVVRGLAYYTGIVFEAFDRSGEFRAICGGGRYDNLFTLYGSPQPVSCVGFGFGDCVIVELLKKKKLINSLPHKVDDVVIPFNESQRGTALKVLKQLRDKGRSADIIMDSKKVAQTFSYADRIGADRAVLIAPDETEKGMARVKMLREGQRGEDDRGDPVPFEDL
UniProt Q4DA54, 1-478: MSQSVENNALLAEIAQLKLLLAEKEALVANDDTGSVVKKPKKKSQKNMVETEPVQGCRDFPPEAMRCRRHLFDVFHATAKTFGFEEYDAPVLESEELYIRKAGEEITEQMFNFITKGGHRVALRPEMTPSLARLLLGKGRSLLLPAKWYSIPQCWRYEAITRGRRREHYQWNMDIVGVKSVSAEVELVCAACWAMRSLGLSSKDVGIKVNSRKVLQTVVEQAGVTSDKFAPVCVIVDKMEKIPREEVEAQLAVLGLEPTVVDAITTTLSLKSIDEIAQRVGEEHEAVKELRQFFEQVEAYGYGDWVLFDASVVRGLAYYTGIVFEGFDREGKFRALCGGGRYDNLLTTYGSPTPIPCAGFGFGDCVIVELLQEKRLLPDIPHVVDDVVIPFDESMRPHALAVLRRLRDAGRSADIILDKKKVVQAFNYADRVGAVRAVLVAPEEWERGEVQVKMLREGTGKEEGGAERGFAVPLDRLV

LiHisRS: 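Enzyme assay of histidyl-tRNA synthetase; the read-out is not stated. Target: Histidine-tRNA ligase, Leishmania infantum (UniProt A4I591). Compounds at 30 µM. Higher reads as stronger inhibition (inferred: compounds with an IC50 in retests scored well above the rest). The assay is labelled LdHisRS but filed under L. infantum. Size under these conditions: about 69,000 compounds, about 410 of them at 50% or above in at least one test.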
TcHisRS: 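Enzyme assay of histidyl-tRNA synthetase; the read-out is not stated. Target: Histidine-tRNA ligase, Trypanosoma cruzi CL Brener (UniProt Q4DA54). Concentration: 30 µM. Direction is inferred from retests: higher values go with stronger inhibition. Of about 69,000 compounds tested this way, about 31 (0.045%) reached 50% or more in at least one test.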

Results are given as percent effect. The controls that fix the scale are not given in the record; negative values are as filed. This is an unselected part of the compounds tested.

Compound: O=C(c1cccs1)N1CCC2(C1)c1ccccc1S(=O)(=O)N2CC1CC1 (centres undefined)
LiHisRS: 13.87%
TcHisRS: 0.5464%

Compound: Cc1cccc(C(C)(C)CNC(=O)CN(C)c2cnccn2)c1
LiHisRS: 0%
TcHisRS: 1.571%

Compound: Cn1cnc(S(=O)(=O)N2CCCc3cc(F)cc(F)c32)c1Cl
LiHisRS: 20.54%
TcHisRS: 15%

Compound: Cc1ccc(CNC(=O)c2nc3c(o2)CN(C(=O)c2cccnc2)C3)o1
LiHisRS: 48.57%
TcHisRS: 17.65%

Compound: Cc1n[nH]c(C)c1CCN(C)c1ccc(-c2nc(C3CC3)no2)cn1
LiHisRS: 10.85%
TcHisRS: 10.71%

Compound: OCCC1CN(c2nc(-c3cccnc3)nc3c2CCNCC3)CCO1 (centres undefined)
LiHisRS: 11.29%
TcHisRS: 7.143%

Compound: N#Cc1cccc(NC2CC(=O)N(Cc3cccc(F)c3)C2)n1 (centres undefined)
LiHisRS: 10.64%
TcHisRS: 9.827%

Compound: COCC1CN(c2ccncn2)Cc2cnn(CC3CCCC3)c21 (centres undefined)
LiHisRS: 9.091%
TcHisRS: 10.74%

Compound: O=C(c1cccnc1)N1Cc2nccn2CC(COc2cccnc2)C1 (centres undefined)
LiHisRS: 12.5%
TcHisRS: 4.762%

Compound: Cc1nonc1OCCNc1ncnc2sc3c(c12)CCNC3
LiHisRS: 21.67%
TcHisRS: 3.896%

Compound: OCC1CCCCN1CCn1ccnc1-c1nc2ccccc2[nH]1 (centres undefined)
LiHisRS: 9.333%
TcHisRS: 12.14%

Compound: Fc1ccc(-c2cnc(C3CCCN3)cn2)cc1 (centres undefined)
LiHisRS: 13.04%
TcHisRS: 6.818%

Compound: CC(=O)N1CCC2(CC1)[C@@H]1CN(C(=O)N(C)C)C[C@@H]1C(=O)N2C
LiHisRS: -40.78%
TcHisRS: 0.9709%

Compound: CCc1c(C)nc(C)nc1N1C[C@@H](CN(CC)CCO)[C@@H](CO)C1
LiHisRS: 0%
TcHisRS: 3.352%

Compound: Cc1ccc([C@]2(O)CC[C@H]3CN(Cc4cccc(Cl)c4Cl)C[C@H]32)nc1
LiHisRS: 33.33%
TcHisRS: -1.622%

Compound: COCc1cccc(CNC(=O)CN2CCCC2c2noc(C)n2)c1 (centres undefined)
LiHisRS: 36%
TcHisRS: 0.3802%

Compound: Cc1n[nH]c(=O)c(C(=O)N2CCN(CCc3cccs3)CC2)c1C
LiHisRS: 13.89%
TcHisRS: 5.572%

Compound: Cc1c(CCC(=O)Nc2ccc(Br)cn2)cnn1C
LiHisRS: 16.07%
TcHisRS: 3.509%

Compound: Cc1cc(C(F)(F)F)nc(CNc2cc(C)nc3cc(C)nn23)n1
LiHisRS: 4.918%
TcHisRS: 10.4%

Compound: O=C(c1ccc[nH]1)N1CCn2cc(CN3CCCC3)nc2C1
LiHisRS: -2.19%
TcHisRS: 4.918%

Compound: O=C1OCCN1CCNCC1(O)CCCN(CCC2CCCCC2)C1=O (centres undefined)
LiHisRS: 16.8%
TcHisRS: -2.513%

Compound: CC(O)CC(C)(C)CNC(=O)NCc1cccc(-n2cncn2)c1 (centres undefined)
LiHisRS: 7.547%
TcHisRS: -1.695%

Compound: CCC(CC)c1cc(CNC(=O)N2CCOC(C)C2)on1 (centres undefined)
LiHisRS: 3.774%
TcHisRS: 0%

Compound: CN1CCO[C@H]2CN(C(=O)c3ccoc3)C[C@H]21
LiHisRS: 11.93%
TcHisRS: 9.244%

Compound: O=C(CCn1cc(Cl)cn1)N1CCC2(CC1)[C@H](O)C[C@@H]2OCCO
LiHisRS: 10.32%
TcHisRS: 10.59%

Compound: Cc1nc(C2CCCN2Cc2ccc(S(=O)(=O)N(C)C)o2)no1 (centres undefined)
LiHisRS: 15.18%
TcHisRS: 7.514%

Compound: O=C(c1ccncc1)N1CCc2ncnc(C3CCOC3)c2CC1 (centres undefined)
LiHisRS: 17%
TcHisRS: 5.102%

Compound: Cc1cc(C)cc(CNC(c2ccccc2)c2nccn2C)c1 (centres undefined)
LiHisRS: 14.68%
TcHisRS: 7.872%

For reference, 3 entries once more:

Cc1ccc([C@]2(O)CC[C@H]3CN(Cc4cccc(Cl)c4Cl)C[C@H]32)nc1 gave LiHisRS: 33.33%; TcHisRS: -1.622%.
O=C(c1cccnc1)N1Cc2nccn2CC(COc2cccnc2)C1 (centres undefined) gave LiHisRS: 12.5%; TcHisRS: 4.762%.
Cc1n[nH]c(C)c1CCN(C)c1ccc(-c2nc(C3CC3)no2)cn1 gave LiHisRS: 10.85%; TcHisRS: 10.71%.

The values are deposited in ChEMBL (CHEMBL3988442, “University of Dundee, Small-Polar-MMV Screening Library” (2021)).